This note sets out measurements from the supplement of paper PMC11732987, “Enantioselective OTUD7B fragment discovery through chemoproteomics screening and high-throughput optimisation” (Communications Chemistry, 2025).

Sequences of proteins named here, by UniProt entry; tags and fusion partners are left off. A change or cut given only in a name is not applied to a line headed by its entry. Residues count along the entry.
UniProt P20585: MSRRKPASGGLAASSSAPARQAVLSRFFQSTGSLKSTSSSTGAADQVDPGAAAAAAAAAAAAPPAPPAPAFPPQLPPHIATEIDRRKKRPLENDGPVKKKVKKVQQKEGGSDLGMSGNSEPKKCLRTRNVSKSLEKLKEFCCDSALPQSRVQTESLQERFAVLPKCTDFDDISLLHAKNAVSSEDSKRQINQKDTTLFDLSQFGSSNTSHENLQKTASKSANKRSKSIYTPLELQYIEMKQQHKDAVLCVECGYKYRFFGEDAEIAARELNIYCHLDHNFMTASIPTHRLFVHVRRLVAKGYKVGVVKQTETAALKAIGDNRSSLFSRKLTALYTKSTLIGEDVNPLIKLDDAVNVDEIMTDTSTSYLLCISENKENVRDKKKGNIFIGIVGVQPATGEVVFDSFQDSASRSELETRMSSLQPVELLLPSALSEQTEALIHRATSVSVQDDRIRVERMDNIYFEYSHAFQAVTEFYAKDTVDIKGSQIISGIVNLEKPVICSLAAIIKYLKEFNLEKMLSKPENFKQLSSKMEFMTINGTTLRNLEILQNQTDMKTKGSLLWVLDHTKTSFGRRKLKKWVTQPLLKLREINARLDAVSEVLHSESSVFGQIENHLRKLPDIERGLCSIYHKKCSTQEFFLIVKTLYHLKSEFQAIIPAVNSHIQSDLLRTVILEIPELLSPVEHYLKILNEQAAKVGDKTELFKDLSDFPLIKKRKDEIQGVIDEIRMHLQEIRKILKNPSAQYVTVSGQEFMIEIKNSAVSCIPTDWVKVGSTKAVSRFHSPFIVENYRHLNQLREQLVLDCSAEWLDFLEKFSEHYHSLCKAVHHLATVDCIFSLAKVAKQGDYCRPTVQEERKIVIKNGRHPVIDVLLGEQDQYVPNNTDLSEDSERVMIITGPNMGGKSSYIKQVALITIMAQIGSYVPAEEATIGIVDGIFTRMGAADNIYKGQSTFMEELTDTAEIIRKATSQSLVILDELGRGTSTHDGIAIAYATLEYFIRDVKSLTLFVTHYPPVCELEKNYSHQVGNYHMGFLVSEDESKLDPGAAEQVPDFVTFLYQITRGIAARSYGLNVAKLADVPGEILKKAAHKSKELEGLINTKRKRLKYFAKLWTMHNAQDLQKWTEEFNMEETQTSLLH
UniProt Q5VVJ2: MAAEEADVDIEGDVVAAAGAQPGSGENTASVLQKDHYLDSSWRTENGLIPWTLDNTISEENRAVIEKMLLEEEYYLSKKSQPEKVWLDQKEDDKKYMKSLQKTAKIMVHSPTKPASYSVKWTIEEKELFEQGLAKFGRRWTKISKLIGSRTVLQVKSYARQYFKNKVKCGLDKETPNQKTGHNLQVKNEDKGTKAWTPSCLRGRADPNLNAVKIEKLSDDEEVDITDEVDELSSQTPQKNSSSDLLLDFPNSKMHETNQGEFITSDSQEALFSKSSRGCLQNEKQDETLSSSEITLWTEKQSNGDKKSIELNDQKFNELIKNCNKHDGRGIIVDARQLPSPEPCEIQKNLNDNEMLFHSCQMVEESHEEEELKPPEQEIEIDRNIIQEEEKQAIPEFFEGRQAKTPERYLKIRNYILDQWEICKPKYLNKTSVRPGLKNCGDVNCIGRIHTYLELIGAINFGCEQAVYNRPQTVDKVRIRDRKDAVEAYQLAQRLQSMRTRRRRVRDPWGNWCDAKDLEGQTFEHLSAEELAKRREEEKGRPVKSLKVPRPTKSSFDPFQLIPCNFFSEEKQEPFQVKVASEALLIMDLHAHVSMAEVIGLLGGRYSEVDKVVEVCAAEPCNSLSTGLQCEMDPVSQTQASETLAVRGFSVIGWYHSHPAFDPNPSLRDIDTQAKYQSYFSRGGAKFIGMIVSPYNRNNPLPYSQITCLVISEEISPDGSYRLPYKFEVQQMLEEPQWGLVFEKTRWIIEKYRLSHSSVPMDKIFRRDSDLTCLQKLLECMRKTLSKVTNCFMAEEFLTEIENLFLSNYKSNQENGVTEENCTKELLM
UniProt P52701: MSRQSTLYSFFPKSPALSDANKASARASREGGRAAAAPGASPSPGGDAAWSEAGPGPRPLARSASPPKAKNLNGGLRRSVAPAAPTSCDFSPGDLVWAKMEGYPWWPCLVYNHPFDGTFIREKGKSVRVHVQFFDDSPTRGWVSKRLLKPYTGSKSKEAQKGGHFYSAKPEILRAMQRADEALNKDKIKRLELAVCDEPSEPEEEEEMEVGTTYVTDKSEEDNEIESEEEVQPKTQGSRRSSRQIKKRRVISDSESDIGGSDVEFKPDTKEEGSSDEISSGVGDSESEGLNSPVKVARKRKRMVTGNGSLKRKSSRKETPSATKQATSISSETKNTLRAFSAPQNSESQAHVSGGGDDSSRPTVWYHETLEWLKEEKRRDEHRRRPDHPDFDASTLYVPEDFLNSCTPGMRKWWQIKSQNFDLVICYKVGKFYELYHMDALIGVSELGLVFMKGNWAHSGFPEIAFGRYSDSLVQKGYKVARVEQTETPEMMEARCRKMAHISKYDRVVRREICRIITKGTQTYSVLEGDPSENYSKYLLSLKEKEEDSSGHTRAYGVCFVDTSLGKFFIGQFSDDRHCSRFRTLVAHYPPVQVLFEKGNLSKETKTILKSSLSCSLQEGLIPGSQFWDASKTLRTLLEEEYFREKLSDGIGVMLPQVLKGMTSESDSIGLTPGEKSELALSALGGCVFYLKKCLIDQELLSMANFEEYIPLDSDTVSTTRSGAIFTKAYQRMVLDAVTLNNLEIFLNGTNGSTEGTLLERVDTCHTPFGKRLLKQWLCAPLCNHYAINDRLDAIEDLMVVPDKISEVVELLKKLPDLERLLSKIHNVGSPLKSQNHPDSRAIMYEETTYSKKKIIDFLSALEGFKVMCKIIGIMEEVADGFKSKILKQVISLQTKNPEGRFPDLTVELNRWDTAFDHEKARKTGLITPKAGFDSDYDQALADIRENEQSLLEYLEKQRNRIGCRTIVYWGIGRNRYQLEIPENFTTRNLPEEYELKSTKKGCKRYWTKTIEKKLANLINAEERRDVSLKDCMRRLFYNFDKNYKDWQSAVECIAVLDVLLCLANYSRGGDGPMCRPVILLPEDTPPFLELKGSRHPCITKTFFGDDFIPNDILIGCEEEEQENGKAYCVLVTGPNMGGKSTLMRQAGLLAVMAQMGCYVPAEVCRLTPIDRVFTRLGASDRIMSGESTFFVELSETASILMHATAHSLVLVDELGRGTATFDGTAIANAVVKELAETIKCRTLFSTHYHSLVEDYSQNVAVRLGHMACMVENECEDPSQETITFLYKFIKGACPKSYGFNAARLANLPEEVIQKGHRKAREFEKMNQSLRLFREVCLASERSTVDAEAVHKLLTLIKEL
UniProt Q13330: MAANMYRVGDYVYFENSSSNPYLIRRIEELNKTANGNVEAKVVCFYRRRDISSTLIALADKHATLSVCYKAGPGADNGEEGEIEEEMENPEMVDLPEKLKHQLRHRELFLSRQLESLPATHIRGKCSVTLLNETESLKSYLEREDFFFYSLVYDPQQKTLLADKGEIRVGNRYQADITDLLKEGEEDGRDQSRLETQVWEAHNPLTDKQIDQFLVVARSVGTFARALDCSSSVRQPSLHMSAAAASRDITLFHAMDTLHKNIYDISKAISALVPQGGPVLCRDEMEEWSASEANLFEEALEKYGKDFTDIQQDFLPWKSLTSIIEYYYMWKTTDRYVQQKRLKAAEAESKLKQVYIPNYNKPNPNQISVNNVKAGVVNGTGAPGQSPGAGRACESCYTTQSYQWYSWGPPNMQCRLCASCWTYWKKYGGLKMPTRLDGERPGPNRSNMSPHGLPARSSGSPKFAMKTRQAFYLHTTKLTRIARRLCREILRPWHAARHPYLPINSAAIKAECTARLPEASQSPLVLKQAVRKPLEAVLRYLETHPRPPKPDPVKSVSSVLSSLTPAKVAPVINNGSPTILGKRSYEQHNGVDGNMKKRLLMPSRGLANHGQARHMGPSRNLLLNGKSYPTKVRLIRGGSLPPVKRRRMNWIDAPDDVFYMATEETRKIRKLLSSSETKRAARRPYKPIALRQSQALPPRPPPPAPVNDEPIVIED
UniProt Q69YI7: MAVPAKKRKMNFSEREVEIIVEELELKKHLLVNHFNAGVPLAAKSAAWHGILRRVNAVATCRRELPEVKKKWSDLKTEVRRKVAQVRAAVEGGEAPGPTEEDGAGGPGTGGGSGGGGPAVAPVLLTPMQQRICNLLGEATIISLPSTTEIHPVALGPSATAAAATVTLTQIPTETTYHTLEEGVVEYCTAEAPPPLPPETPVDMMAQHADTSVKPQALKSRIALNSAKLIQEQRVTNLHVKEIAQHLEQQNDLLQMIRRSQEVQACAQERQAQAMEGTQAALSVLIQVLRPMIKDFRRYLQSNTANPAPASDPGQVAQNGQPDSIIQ
UniProt Q4G0N4: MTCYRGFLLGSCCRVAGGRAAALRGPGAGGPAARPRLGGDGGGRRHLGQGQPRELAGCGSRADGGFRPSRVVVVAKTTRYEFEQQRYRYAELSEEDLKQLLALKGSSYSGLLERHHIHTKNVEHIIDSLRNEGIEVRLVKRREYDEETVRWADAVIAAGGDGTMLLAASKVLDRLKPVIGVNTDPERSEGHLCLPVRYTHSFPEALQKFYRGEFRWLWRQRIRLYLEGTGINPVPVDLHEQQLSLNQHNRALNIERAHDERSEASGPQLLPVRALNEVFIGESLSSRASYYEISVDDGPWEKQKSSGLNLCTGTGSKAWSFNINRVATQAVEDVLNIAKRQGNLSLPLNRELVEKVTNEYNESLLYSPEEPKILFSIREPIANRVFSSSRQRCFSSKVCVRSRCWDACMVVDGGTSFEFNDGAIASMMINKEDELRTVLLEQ
UniProt P10244: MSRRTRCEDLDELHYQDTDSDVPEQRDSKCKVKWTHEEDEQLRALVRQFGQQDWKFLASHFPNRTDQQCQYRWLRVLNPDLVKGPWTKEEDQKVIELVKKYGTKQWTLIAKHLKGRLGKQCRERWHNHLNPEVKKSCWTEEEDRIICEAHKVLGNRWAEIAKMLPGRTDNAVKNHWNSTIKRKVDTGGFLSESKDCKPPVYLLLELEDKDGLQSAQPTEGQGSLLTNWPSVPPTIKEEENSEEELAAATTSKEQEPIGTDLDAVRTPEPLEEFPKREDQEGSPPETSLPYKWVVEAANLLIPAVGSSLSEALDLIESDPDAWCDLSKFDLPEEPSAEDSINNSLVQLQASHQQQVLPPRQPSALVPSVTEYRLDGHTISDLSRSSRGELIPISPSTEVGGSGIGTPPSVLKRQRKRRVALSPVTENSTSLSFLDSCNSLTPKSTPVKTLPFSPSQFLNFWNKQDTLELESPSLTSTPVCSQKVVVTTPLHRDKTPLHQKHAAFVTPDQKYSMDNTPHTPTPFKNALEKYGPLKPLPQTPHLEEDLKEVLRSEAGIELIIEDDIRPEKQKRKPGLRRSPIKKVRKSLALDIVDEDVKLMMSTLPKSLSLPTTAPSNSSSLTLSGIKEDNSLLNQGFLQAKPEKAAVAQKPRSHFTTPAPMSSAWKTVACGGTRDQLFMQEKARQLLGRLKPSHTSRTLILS
UniProt Q6N069: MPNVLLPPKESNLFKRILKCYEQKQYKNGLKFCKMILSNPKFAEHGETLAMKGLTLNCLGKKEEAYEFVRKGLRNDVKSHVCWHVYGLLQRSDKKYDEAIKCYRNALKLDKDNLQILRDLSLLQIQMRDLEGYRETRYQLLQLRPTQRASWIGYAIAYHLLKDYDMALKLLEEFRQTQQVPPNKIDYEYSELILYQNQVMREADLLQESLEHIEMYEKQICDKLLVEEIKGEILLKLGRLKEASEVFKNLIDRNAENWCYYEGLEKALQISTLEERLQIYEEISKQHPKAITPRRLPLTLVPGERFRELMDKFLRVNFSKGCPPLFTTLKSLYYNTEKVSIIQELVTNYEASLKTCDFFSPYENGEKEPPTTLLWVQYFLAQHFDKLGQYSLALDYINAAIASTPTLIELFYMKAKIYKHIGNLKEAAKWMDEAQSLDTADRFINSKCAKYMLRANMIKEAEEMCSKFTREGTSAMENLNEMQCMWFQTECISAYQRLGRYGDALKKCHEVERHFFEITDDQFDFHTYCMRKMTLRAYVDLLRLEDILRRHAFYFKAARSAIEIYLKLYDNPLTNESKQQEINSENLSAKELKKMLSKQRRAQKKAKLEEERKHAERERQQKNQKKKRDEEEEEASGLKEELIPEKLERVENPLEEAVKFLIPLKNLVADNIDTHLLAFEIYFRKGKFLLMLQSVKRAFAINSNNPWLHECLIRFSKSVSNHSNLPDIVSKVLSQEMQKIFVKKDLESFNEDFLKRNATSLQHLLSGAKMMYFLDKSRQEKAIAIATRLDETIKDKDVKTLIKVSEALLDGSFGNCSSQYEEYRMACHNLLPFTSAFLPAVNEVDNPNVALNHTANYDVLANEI
UniProt Q7Z406, 107-126: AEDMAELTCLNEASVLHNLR
UniProt Q9ULH7, 620-640: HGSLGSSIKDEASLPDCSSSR

This is one part of the list. The data scatter; read single values as rough.

Compound in the first assay: ClCC(=O)N[C@@H]1CCCc2ccccc12
Nature of the assay: log2 mean competition ratio of IA-DTB cysteine labelling (DMSO/compound) (log2 ratio); higher = stronger cysteine engagement by compound. The settings on record: 50 µM; treatment time: 4 h; cell line lysate: HEK293T. The protocol:
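IA-DTB competitive cysteine chemoproteomics in HEK293T RIPA lysate. Lysates were treated with compound 29 or 30 at 50 or 200 µM for 4 h, then IA-DTB (500 µM, 1 h), trypsin-digested, NeutrAvidin-enriched and analysed by diaPASEF. Competition ratio = intensity DMSO / intensity compound (n=4 treated, n=64 DMSO); binding: mean log2 CR ≥ 1 and p ≤ 0.05 plus QC filters. Target is the cysteine site.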
With MSH3 C803 (UniProt P20585), the “log2 mean competition ratio” value turned out to be 0.0872.
The same measure, in the same setting: in the case of MYSM1 C169 (UniProt Q5VVJ2) it was -0.144; in that of MSH6 C765 (UniProt P52701), -0.0971; in that of MRPL53 C63 (UniProt Q96EL3), -0.183.
As to MTA1 C68 (UniProt Q13330), the “log2 mean competition ratio” value was 0.377.
With MYCBP2 C4638 (UniProt O75592), the “log2 mean competition ratio” value was -0.0882.
With NAIF1 C266 (UniProt Q69YI7), the “log2 mean competition ratio” value was 0.426.
The same measure, in the same setting: in the case of NADK2 C58 (UniProt Q4G0N4) it was 0.00784; in that of MRPL22 C70 (UniProt Q9NWU5), 0.0806.
Regarding MTM1 C242 (UniProt Q13496), the “log2 mean competition ratio” value was -0.201.
Same read-out and setting: with MRPS5 C324 (UniProt P82675) the figure was 0.351; with NAIF1 C61 (UniProt Q69YI7), 0.0844.
Turning to MYBL2 C69 (UniProt P10244), the “log2 mean competition ratio” value turned out to be 0.132.
On the same count and under the same terms, in the case of NAA16 C259 (UniProt Q6N069) it was 0.271; in that of MYH14 C115 (UniProt Q7Z406), 0.0505; in that of MTA1 C281 (UniProt Q13330), 0.102.
On the same count and under the same terms, in the case of NAPB C42 (UniProt Q9H115) it was 0.12.
As for MRTFB C636 (UniProt Q9ULH7), the “log2 mean competition ratio” value amounted to 0.0672.
On the same count and under the same terms, with MTMR1 C12 (UniProt Q13613) the figure was -0.00675.
The same measure, in the same setting: with N4BP2L2 C354 the figure was 0.368.

The assay is the same for the next values; noted with them: 200 µM; treatment time: 4 h; cell line lysate: HEK293T.
With MSH3 C803 (UniProt P20585), the “log2 mean competition ratio” value is -0.125.
Consider MYSM1 C169 (UniProt Q5VVJ2), for which the “log2 mean competition ratio” value stood at 0.185.
Same read-out and setting: with MSH6 C765 (UniProt P52701) the figure was 0.149.
Same read-out and setting: in the case of MRPL53 C63 (UniProt Q96EL3) it was 0.113; in that of MTA1 C68 (UniProt Q13330), -0.178.
On the same count and under the same terms, with MYCBP2 C4638 (UniProt O75592) the figure was -0.19.
Regarding NAIF1 C266 (UniProt Q69YI7), the “log2 mean competition ratio” value was -0.339.
Still for that read-out and setting: in the case of NADK2 C58 (UniProt Q4G0N4) it was 0.0695.
On the same count and under the same terms, in the case of MRPL22 C70 (UniProt Q9NWU5) it was 0.383.
On the same count and under the same terms, with MTM1 C242 (UniProt Q13496) the figure was -0.201.
For MRPS5 C324 (UniProt P82675), the “log2 mean competition ratio” value turned out to be 0.171.
Turning to NAIF1 C61 (UniProt Q69YI7), the “log2 mean competition ratio” value came out at 0.264.
Regarding MYBL2 C69 (UniProt P10244), the “log2 mean competition ratio” value was found to be 0.306.
As to NAA16 C259 (UniProt Q6N069), the “log2 mean competition ratio” value is -0.396.
The same measure, in the same setting: in the case of MYH14 C115 (UniProt Q7Z406) it was -0.321; in that of MTA1 C281 (UniProt Q13330), -0.0594.
The same measure, in the same setting: with NAPB C42 (UniProt Q9H115) the figure was 0.239.
Same read-out and setting: in the case of MRTFB C636 (UniProt Q9ULH7) it was 0.0917; in that of MTMR1 C12 (UniProt Q13613), -0.261.
As to N4BP2L2 C354, the “log2 mean competition ratio” value is 0.489.
